Laboratory results reported in publication PMC7132099.
No constants are given. Whether binding was seen depends on the method and setting. Binding seen in cells or lysates may run through a third protein. These calls come from enrichment with a bait or labelling near it, and not all partners need be listed.

Protein sequences, listed by entry. Tags and fused reporters are not part of them.
UniProt Q80Y73: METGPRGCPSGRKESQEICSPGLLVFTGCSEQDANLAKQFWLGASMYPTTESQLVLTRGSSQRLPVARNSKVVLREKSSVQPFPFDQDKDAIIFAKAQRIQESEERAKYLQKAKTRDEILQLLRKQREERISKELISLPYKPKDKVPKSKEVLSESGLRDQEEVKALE
UniProt O35286: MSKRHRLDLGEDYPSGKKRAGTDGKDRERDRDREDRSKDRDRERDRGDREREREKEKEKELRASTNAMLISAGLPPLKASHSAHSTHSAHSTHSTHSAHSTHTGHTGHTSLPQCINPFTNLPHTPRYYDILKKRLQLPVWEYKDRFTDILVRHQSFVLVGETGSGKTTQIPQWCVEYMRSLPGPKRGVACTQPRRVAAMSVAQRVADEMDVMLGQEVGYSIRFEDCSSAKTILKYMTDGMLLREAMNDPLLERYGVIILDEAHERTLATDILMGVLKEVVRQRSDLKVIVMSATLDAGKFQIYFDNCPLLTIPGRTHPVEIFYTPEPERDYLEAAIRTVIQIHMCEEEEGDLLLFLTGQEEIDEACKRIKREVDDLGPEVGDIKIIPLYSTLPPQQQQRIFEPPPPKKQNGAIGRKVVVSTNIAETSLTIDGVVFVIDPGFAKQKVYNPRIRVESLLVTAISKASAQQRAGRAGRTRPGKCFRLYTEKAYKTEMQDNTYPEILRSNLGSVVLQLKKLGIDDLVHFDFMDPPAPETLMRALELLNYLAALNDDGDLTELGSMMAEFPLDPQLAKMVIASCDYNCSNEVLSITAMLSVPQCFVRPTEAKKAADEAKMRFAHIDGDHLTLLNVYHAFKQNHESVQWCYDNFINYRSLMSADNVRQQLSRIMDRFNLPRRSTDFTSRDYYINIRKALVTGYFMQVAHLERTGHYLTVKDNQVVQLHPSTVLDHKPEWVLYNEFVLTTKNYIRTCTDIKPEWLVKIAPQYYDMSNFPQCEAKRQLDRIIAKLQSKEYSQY
UniProt P16627: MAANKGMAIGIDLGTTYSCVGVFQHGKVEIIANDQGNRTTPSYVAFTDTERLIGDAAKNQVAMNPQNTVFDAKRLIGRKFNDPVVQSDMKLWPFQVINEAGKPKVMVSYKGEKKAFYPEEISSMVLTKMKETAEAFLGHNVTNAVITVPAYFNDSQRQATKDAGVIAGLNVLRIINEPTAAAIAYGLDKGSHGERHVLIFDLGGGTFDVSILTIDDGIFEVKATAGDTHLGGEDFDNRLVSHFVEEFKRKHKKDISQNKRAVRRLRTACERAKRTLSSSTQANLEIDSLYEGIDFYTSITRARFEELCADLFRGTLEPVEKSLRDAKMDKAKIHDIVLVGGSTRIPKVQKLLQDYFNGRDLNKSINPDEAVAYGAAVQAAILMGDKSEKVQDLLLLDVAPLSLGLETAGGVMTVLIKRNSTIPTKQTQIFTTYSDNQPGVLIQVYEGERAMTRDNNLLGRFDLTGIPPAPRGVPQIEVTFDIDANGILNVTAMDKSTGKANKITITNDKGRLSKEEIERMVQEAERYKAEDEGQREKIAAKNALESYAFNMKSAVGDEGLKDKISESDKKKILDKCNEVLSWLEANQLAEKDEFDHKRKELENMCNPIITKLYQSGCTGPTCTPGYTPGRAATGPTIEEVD
UniProt P48722: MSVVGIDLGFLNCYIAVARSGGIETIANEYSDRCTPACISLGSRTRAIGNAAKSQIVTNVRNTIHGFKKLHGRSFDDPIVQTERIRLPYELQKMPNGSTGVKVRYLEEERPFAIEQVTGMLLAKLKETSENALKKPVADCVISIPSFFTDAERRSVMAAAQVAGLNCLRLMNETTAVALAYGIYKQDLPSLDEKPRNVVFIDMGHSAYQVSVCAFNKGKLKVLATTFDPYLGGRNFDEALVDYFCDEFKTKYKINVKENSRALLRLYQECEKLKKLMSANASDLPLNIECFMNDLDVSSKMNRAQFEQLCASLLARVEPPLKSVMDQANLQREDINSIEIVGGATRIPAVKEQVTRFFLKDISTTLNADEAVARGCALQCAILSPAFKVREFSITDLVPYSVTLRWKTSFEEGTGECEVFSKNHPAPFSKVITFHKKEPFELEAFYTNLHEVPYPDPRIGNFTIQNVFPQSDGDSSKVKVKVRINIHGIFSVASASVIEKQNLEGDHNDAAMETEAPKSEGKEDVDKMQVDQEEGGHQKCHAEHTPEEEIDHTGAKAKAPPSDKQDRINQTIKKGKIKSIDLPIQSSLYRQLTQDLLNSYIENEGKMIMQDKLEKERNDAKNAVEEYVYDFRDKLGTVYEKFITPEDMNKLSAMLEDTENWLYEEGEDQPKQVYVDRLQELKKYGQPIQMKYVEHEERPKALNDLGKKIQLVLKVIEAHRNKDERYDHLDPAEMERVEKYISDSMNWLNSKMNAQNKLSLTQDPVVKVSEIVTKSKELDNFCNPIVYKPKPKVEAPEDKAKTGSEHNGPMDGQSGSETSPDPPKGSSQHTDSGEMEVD
UniProt P05214: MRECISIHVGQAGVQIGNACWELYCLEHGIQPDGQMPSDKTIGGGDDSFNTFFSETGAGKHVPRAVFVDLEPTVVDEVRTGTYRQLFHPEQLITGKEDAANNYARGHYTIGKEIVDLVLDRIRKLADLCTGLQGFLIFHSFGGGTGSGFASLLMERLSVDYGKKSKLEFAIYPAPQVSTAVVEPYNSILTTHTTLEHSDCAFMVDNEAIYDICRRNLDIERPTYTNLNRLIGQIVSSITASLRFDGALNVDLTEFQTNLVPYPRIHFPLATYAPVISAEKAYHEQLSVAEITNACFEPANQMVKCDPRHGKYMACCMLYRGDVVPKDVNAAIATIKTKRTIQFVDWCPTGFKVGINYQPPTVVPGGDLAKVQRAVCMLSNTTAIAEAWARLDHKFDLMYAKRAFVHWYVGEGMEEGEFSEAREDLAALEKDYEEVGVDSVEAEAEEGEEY
UniProt P99024: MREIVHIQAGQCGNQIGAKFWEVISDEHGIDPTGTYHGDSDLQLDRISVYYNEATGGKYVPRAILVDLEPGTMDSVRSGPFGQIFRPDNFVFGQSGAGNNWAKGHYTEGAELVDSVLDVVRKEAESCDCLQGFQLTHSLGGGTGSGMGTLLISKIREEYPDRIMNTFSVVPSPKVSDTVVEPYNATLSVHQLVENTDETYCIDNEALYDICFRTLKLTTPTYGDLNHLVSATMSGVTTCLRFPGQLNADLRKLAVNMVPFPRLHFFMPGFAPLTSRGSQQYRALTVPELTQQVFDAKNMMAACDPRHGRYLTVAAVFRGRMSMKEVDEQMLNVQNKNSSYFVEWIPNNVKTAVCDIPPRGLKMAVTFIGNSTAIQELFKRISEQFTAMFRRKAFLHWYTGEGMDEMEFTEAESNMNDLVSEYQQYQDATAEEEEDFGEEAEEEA

B1: enolase 4 (ENO4) (enzyme, UniProt Q8C042 1-619)
chain: MGDEDGGRRGGITRDLQKLKQQAMAYYQENDVPRKLEDLLNSTFYLQPADVYGHLKANYFSKLAKPPSICKIVGKTILDGLGLPTLQVEISCTIQNFPKYICAVAIPTHFEVVENALPEALDAEDSERAQAVNTAVQWINQSITEELWGLVPSNQAEVDHRLRTFFEHKVQEDKERKELEKSQEELVPAPPPVTLPPPPPPPPPPPSKKKGQKAGRRDTLLEKPVSPPEPPEPVLHGSMAIGAVSLAVAKASATLASDPLYLTLASLKHDQEQPSTFSMPLLMGSVLSCGKSSPGKLHLMKEVICIPSPGLTAKQSVELLLEIQKQVNRAMETLPPPKQETKKGHNGSKRAQPPITGKVSHLGCLTINYDAIEQPLLLLQGICSNLGLELGVNFHLAINCAGHELMDYSKGKYEVMVGTHKSAAEMVELYVDLINKYPSIIALIDPFRKEDAEQWDSLYAALASRCYLIAGAASGSVSKLLECRNISTLKSHGLIIKHTNQTTMSDLVEITHLINGKKLLAVFGSTDSESSDDSLVDLAVGFGARFIKLGGLSRGERMTKYNRLLAIEEELIQRGVWGFSEEHNFSFFQEDATATMAEETLGLLDSIFPTEVIEESAKT
B2: apoptotic chromatin condensation inducer 1 (ACIN1) (protein, UniProt Q9JIX8 1-1338)
chain: MWGRKRPNSSGETRGILSGNRGVDYGSGRGQSGPFEGRWRKLPKMPEAVGTDPSTSRKMAELEEVTLDGKPLQALRVTDLKAALEQRGLAKSGQKSALVKRLKGALMLENLQKHSTPHAAFQPNSQIGEEMSQNSFIKQYLEKQQELLRQRLEREAREAAELEEASAESEDEMTHPEGVASLLPPDFQSSLNRPELELSTHSPRKSSSFSEEKGESDDEKPRKGERRSSRVRQAKSKLPEYSQTAEEEEDQETPSRNLRVRADRNLKIEEEEEEEEEEEDDDDEEEEEVDEAQKSREAEAPTLKQFEDEEGEERTRAKPEKVVDEKPLNIRSQEKGELEKGGRVTRSQEEARRSHLARQQQEKETQIVSLPQEENEVKSSQSLEEKSQSPSPPPLPEDLEKAPVVLQPEQIVSEEETPPPLLTKEASSPPTHIQLQEEMEPVEGPAPPVLIQLSPPNTDAGAREPLASPHPAQLLRSLSPLSGTTDTKAESPAGRVSDESVLPLAQKSSLPECSTQKGVESEREKSAPLPLTVEEFAPAKGITEEPMKKQSLEQKEGRRASHALFPEHSGKQSADSSSSRSSSPSSSSSPSRSPSPDSVASRPQSSPGSKQRDGAQARVHANPHERPKMGSRSTSESRSRSRSRSRSASSSSRKSLSPGVSRDSNTSYTETKDPSCGQEAAAPSGPQLQVLEPKEKAPTFSASVRGRHLSHPEPEQQHVIQRLQPEQGSPKKCEAEEAEPPAATQPQTSETQISHLLESERTHHTVEEKEEVTMDTSENRPENEVPEPPLPVADQVSNDERPEGGAEEEEKKESSMPKSFKRKISVVSATKGVQAGNSDTEGGQPGRKRRWGASTAATQKKPSISITTESLKSLIPDIKPLAGQEAVVDLHADDSRISEDETERNGDDGTHDKGLKICRTVTQVVPAEGQENGQREEEEEKEPEAELPAPPQVSVEVALPPPVEHEVKKVTLGDTLTRRSISQQKSGVSITIDDPVRTAQVPSPPRGKISNIVHISNLVRPFTLGQLKELLGRTGTLVEEAFWIDKIKSHCFVTYSTVEEAVATRTALHGVKWPQSNPKFLCADYAEQDELDYHRGLLVDRPSETKAEEQGAPRPLHPPPPPPVQPPPHPRAEQREQERAVREQWAEREREMERRERTRSEREWDRDKVREGPRSRSRSRDRRRKERAKSKEKKSEKKEKAQEEPPAKLLDDLFRKTKAAPCIYWLPLTESQIVQKEAEQAERAKEREKRRKEREEEEQKEREKEAERERNRQLEREKRREHSRERERDRERERDRGDRERERERDRDRGRERDRRDTKRHSRSRSRSTPVRDRGGRR
B3: small nuclear ribonucleoprotein U4/U6.U5 subunit 27 (SNRNP27) (protein, UniProt Q8K194 1-155)
chain: MGRSRSRSPRRERRRSRSTSRDRERRRRERSRSRERDRRRSRSRSPHRRRSRSPRRHRSTSPSPSRLKERRDEEKKETKEIKNKERQITEEDLEGKTEEEIEMMKLMGFASFDSTKGKKVDGSVNAYAINVSQKRKYRQYMNRKGGFNRPLDFIA
B4: arginine and serine rich coiled-coil 1 (RSRC1) (protein, UniProt Q9DBU6 1-334)
chain: MGRRSSDTEEESRSKRKKKHRRRSSSSSSSDSRTYSRKKGGRRPRSDSRSWSRDRQLRSHSYERRRRRRSSSSSSYGSRRKRSRSRSRGRGKPYRVQRSRSKSRTRRSRSRPRPRSHSRSSERSSHRRTRSRSRDRDRRKVRDKEKREKEKDKGKDKEVHSIKRGDSGNIKAGLEHLPPAEQAKARLQLVLEAAAKADEALKAKERSEEEAKRRKEEDQATLVEQVKRVKEIEAIESDSFVQQTFRSSKDVKKAVEPSEVQHVTAASGPASAAAEPPSTGKEIDPDSIPTAIKYQDDNSLAHPNLFIEKAEAEEKWFKRLIALRQERLMGSPVA
B5: RNA binding protein with serine rich domain 1 (RNPS1) (protein, UniProt Q99M28 1-305)
chain: MDLSGVKKKSLLGVKENNKKSSTRAPSPTKRKDRSDEKSKDRSKDKGATKESSEKDRGRDKTRKRRSASSGSSSTRSRSSSTSSSGSSTSTGSSSGSSSSSASSRSGSSSTSRSSSSSSSSGSPSPSRRRHDNRRRSRSKSKPPKRDEKERKRRSPSPKPTKVHIGRLTRNVTKDHIMEIFSTYGKIKMIDMPVERMHPHLSKGYAYVEFENPDEAEKALKHMDGGQIDGQEITATAVLAPWPRPPPRRFSPPRRMLPPPPMWRRSPPRMRRRSRSPRRRSPVRRRSRSPGRRRHRSRSSSNSSR

The molecules below were run against HOATZ (Hoatzin; product of 4833427G06Rik) (mouse (endogenous in testis)) (UniProt Q80Y73) (assay: affinity purification with mass spectrometry; testis homogenates of wild-type and Hoatz-/- mice incubated with rabbit polyclonal anti-HOATZ IgG cross-linked to magnetic beads; eluates analysed by LC-MS; hits: specific to or >3-fold more peptide-to-spectrum matches in wild type).

binding	Molecule
binds	DEAH-box helicase 15 (DHX15) (from UniProt O35286 1-795)
binds	HSPA1L (from UniProt P16627 1-641)
binds	HSPA4L (from UniProt P48722 1-838)
binds	TUBA3A (from UniProt P05214 1-450)
binds	TUBB5 (from UniProt P99024 1-444)
binds	B1
binds	B2
binds	B3
binds	B4
binds	B5
